Experimental data taken from patent US20140343104A1, “OSTEOGENESIS PROMOTER AND USE THEREOF” (National University Corporation Nagoya University, priority 2011, published 2014).

Assays:
Type in all cases: cell-based
luciferase protein = test: double luciferase assay, pGL4.10 basic vector and phRL vector cotransfected into C3H10T1/2 cells; conditions: pGL4.10 [luc2/SV40] basic vector and phRL [hRluc/TK] vector
Experimental: In order to exclude the possibility of the potential agent to increase the enzymatic activity of luciferase protein, the pGL4. 10 basic vector (pGL4.10 [luc2/SV40] basic vector) and phRLvector (phRL [hRluc/TK] vector) were cotransfected into the C3H10T1/2 cells, the potential agents were individually added, and double luciferase assay was performed.

[1] = test system: P1 promoter region of the human Runx2 gene; test: RUNX2 P1 promoter luciferase reporter assay in BMP-2-induced C3H10T1/2 stable expression strain (primary, secondary, tertiary screening); conditions: five times of screening (N=6/time); average of 5 times or even at once
Excerpt: Existing drugs which increase the promoter activity of the transcription factor Runx2 were exhaustively searched by luciferase assay. Firstly, the P1 promoter region of the human Runx2 gene was inserted into the multiple cloning site of the pGL4 luciferase reporter vector (Promega K.K.) (pGL4.10 vector). The pGL4.10 vector was transfected into the undifferentiated mouse mesenchymal cell line C3H10T1/2, and selectively cultured on a G418-containing medium, thereby establishing the stable expression strain. The cells were seeded on a 96-well (day 1), and human BMP-2 was added to each well on day 2, thereby inducing differentiation into osteoblasts. On the following day, the test compounds (10 μM) composing Prestwick Chemical Library (registered trademark) (Prestwick Chemical Ltd.) were added, and the cells were collected 24 hours after, and subjected to luciferase assay.
In addition to the compounds which made the reporter activity of luciferase (average of 5 times) 1.5 times that of the control, those made the activity 1.5 times than that of the control even at once were selected.

[2] = test system: P1 promoter region of the human Runx2 gene; test: as above; conditions: three times of screening (N=6/time) at 8 levels of concentration

Cl.Nc1nc2ccc(OC(F)(F)F)cc2s1 [riluzole hydrochloride, 6-(trifluoromethoxy)-1,3-benzothiazol-2-amine hydrochloride]
specificity of RUNX2 promoter promotion versus increase of luciferase activity (luciferase protein): slightly increase the luciferase activity | secondary screening: reporter activity of luciferase 1.5 times that of the control [1]: selected | tertiary screening: concentration dependency of the promotion of RUNX2 promoter activity [2]: concentration dependency
